Data as given in PubChem BioAssay AID743458 (Peter MacCallum Cancer Centre, 2014).
Purpose: 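Retest earlier hits with independent siRNAs per gene for restoring vorinostat sensitivity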 (follow-up of hits). Cells: human HCT116-VR colon cancer cells made resistant to vorinostat. Knock-down reagent: single siRNA or pool against human genes, 25 nM per single siRNA. Timing: about 72 h after transfection, including 24 h of drug. Treatment: vorinostat, 2.5 µM final, for 24 h. Detection: 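Cell viability by fluorescence and apoptosis by caspase 3/7 luminescence under vorinostat, background-corrected, averaged across two plate copies and given as fold change versus mock transfection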. Direction: viability relative to mock: higher = more living cells than mock; caspase activity relative to mock: higher = more apoptosis than mock. Call rule: 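Active means a reduced-viability or caspase-activation class, anything else inactive; classes could only be given to wells that looked healthy when left untreated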.
In all, the deposit lists about 1,800 reagents; shown is a random part of them. Over the whole deposit, 732 (41%) got an active call. 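Calls are per siRNA reagent; a gene was deemed confirmed only if most of its four siRNAs scored.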 Unmarked entries are inactive. The numbers tell different reagents against one gene apart. Reagent sequences are not shown.

What is on record for MICALL2 (MICAL like 2) #1?
viability relative to mock: 0.6; caspase activity relative to mock: 2.56; viability hit class: no change; caspase hit class: no change

What is on record for MICALL2 (MICAL like 2) #2?
viability relative to mock: 0.94 (active); caspase activity relative to mock: 2.66; viability hit class: no change; caspase hit class: caspase activation

With MICALL2 (MICAL like 2) #3, what was measured?
viability relative to mock: 0.89 (active); caspase activity relative to mock: 4.12; viability hit class: no change; caspase hit class: caspase activation

Which result is listed for MICALL2 (MICAL like 2) #4?
viability relative to mock: 1.02; caspase activity relative to mock: 1; viability hit class: no change; caspase hit class: no change

With TRIM59 (tripartite motif containing 59) #1, how do the results read?
viability relative to mock: 0.76; caspase activity relative to mock: 2.5; viability hit class: no change; caspase hit class: no change

How did the screen score TRIM59 (tripartite motif containing 59) #2?
viability relative to mock: 0.8; caspase activity relative to mock: 1.73; viability hit class: no change; caspase hit class: no change

Which result is listed for TRIM59 (tripartite motif containing 59) #3?
viability relative to mock: 0.86; caspase activity relative to mock: 0.97; viability hit class: no change; caspase hit class: no change

Which result is listed for TRIM59 (tripartite motif containing 59) #4?
viability relative to mock: 0.98; caspase activity relative to mock: 1.21; viability hit class: no change; caspase hit class: no change

For NCOA4 (nuclear receptor coactivator 4) #1, what does the deposit list?
viability relative to mock: 0.93; caspase activity relative to mock: 2.36; viability hit class: no change; caspase hit class: no change

For NCOA4 (nuclear receptor coactivator 4) #2, what was measured?
viability relative to mock: 0.22 (active); caspase activity relative to mock: 4.15; viability hit class: reduced viability; caspase hit class: caspase activation

With NCOA4 (nuclear receptor coactivator 4) #3, what does the deposit list?
viability relative to mock: 0.56 (active); caspase activity relative to mock: 1.45; viability hit class: reduced viability; caspase hit class: no change

With NCOA4 (nuclear receptor coactivator 4) #4, what was measured?
viability relative to mock: 0.96; caspase activity relative to mock: 1.12; viability hit class: no change; caspase hit class: no change

How did the screen score PPP2R2A (protein phosphatase 2 regulatory subunit Balpha) #1?
viability relative to mock: 0.68 (active); caspase activity relative to mock: 3.68; viability hit class: no change; caspase hit class: caspase activation

With PPP2R2A (protein phosphatase 2 regulatory subunit Balpha) #2, what does the deposit list?
viability relative to mock: 0.98; caspase activity relative to mock: 1.51; viability hit class: no change; caspase hit class: no change

For PPP2R2A (protein phosphatase 2 regulatory subunit Balpha) #3, how do the results read?
viability relative to mock: 0.98 (active); caspase activity relative to mock: 4.31; viability hit class: no change; caspase hit class: caspase activation

With PPP2R2A (protein phosphatase 2 regulatory subunit Balpha) #4, what was measured?
viability relative to mock: 0.96; caspase activity relative to mock: 1.71; viability hit class: no change; caspase hit class: no change

With ANO1 (anoctamin 1) #1, how do the results read?
viability relative to mock: 0.1; caspase activity relative to mock: 1.62; viability hit class: no change; caspase hit class: no change

For ANO1 (anoctamin 1) #2, how do the results read?
viability relative to mock: 0.88; caspase activity relative to mock: 1; viability hit class: no change; caspase hit class: no change

What did the screen give for ANO1 (anoctamin 1) #3?
viability relative to mock: 0.96; caspase activity relative to mock: 1.18; viability hit class: no change; caspase hit class: no change

With ANO1 (anoctamin 1) #4, what was measured?
viability relative to mock: 0.52 (active); caspase activity relative to mock: 3.44; viability hit class: reduced viability; caspase hit class: caspase activation

For RUNX2 (RUNX family transcription factor 2) #1, what was measured?
viability relative to mock: 0.78; caspase activity relative to mock: 2.23; viability hit class: no change; caspase hit class: no change

Which result is listed for RUNX2 (RUNX family transcription factor 2) #2?
viability relative to mock: 0.96; caspase activity relative to mock: 1.25; viability hit class: no change; caspase hit class: no change

For RUNX2 (RUNX family transcription factor 2) #3, how do the results read?
viability relative to mock: 0.97; caspase activity relative to mock: 1.8; viability hit class: no change; caspase hit class: no change

With RUNX2 (RUNX family transcription factor 2) #4, how do the results read?
viability relative to mock: 0.31 (active); caspase activity relative to mock: 3.28; viability hit class: reduced viability; caspase hit class: caspase activation

How did the screen score SPRED3 (sprouty related EVH1 domain containing 3) #1?
viability relative to mock: 0.82 (active); caspase activity relative to mock: 2.88; viability hit class: no change; caspase hit class: caspase activation

What did the screen give for SPRED3 (sprouty related EVH1 domain containing 3) #2?
viability relative to mock: 0.94; caspase activity relative to mock: 1.45; viability hit class: no change; caspase hit class: no change

For SPRED3 (sprouty related EVH1 domain containing 3) #3, how do the results read?
viability relative to mock: 0.18 (active); caspase activity relative to mock: 2.63; viability hit class: reduced viability; caspase hit class: caspase activation

What did the screen give for SPRED3 (sprouty related EVH1 domain containing 3) #4?
viability relative to mock: 0.82; caspase activity relative to mock: 2; viability hit class: no change; caspase hit class: no change

Already shown: 3 of the entries above.
TRIM59 (tripartite motif containing 59) #4 | viability relative to mock = 0.98; caspase activity relative to mock = 1.21; viability hit class = no change; caspase hit class = no change
NCOA4 (nuclear receptor coactivator 4) #1 | viability relative to mock = 0.93; caspase activity relative to mock = 2.36; viability hit class = no change; caspase hit class = no change
NCOA4 (nuclear receptor coactivator 4) #2 | viability relative to mock = 0.22 (active); caspase activity relative to mock = 4.15; viability hit class = reduced viability; caspase hit class = caspase activation
